From the supplement of paper PMC6411743 come the findings set out here.

The chains behind the UniProt entries cited, without tags or fusion partners. Where a name states a change or a piece, a line headed by the entry shows the natural chain unless it says otherwise.
UniProt P40337, whole entry, looked up: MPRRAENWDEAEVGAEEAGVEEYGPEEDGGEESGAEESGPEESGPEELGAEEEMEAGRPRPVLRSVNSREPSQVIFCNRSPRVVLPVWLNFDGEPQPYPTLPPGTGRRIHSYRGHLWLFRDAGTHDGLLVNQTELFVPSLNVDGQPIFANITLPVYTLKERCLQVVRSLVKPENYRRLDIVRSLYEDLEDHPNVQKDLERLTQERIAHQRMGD
UniProt P50995, whole entry: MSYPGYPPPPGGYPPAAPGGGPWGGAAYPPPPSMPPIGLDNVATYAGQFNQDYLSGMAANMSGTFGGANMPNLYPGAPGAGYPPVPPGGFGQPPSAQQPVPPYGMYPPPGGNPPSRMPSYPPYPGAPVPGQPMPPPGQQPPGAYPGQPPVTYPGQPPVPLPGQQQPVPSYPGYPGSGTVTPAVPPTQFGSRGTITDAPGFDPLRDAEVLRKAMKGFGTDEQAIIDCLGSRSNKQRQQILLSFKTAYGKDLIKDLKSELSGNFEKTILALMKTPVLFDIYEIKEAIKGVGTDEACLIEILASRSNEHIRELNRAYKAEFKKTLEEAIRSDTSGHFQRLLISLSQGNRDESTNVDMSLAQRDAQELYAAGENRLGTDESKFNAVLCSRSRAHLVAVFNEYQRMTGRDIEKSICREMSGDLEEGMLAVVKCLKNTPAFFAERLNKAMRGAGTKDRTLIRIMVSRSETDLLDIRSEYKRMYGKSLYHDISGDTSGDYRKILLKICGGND
UniProt P52564: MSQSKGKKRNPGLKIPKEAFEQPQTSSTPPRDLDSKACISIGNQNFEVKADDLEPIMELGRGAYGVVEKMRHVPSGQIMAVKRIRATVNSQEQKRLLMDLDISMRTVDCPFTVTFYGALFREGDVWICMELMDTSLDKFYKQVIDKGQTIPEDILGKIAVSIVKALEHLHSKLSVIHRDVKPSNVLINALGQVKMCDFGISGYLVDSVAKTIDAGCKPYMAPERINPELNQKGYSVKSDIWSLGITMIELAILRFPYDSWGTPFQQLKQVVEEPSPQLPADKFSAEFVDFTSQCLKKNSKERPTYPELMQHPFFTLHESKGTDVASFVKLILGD
UniProt P49643: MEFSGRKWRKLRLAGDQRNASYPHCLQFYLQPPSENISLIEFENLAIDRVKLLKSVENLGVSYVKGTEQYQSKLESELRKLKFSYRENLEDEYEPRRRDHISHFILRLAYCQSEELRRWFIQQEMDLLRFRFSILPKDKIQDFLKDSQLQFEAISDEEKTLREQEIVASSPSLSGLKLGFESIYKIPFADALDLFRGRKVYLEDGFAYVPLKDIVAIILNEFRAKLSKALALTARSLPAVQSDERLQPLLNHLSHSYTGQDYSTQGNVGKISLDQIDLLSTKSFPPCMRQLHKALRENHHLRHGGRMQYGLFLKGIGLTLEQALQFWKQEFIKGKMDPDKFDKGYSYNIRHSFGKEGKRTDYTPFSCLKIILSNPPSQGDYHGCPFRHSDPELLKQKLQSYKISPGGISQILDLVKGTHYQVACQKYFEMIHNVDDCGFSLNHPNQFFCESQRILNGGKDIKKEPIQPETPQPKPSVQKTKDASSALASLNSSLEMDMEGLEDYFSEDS
UniProt P40855: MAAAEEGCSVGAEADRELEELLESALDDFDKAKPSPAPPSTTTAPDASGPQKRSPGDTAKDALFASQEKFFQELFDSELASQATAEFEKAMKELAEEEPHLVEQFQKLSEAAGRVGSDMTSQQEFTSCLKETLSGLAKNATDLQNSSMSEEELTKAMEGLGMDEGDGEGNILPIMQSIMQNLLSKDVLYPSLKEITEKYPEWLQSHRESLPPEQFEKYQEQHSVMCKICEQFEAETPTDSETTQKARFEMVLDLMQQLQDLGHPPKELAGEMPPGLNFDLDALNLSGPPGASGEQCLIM
UniProt P51809, whole entry: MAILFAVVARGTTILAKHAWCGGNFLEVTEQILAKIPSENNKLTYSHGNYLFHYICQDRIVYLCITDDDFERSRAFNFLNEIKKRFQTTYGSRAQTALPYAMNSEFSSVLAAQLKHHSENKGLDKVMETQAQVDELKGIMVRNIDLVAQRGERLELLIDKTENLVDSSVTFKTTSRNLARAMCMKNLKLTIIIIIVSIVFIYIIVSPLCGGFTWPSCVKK
UniProt P51659: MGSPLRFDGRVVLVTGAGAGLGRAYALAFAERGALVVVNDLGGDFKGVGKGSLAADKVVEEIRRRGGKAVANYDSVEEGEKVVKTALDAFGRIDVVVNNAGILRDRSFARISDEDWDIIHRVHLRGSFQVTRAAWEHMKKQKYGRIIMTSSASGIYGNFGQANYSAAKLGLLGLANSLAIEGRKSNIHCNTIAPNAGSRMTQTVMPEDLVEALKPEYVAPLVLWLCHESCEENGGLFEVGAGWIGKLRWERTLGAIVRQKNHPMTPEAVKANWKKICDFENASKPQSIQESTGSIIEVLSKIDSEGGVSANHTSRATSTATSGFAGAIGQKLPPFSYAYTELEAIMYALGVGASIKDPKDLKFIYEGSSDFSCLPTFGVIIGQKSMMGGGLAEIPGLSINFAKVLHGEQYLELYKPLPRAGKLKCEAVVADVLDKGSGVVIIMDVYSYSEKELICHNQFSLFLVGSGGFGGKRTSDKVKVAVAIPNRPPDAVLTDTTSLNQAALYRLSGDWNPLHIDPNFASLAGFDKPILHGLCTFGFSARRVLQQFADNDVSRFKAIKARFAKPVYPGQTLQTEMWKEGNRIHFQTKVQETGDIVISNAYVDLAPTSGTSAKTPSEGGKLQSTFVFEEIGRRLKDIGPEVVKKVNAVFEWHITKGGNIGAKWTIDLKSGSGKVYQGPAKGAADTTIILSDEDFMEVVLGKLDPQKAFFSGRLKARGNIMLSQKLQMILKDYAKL
UniProt P48047: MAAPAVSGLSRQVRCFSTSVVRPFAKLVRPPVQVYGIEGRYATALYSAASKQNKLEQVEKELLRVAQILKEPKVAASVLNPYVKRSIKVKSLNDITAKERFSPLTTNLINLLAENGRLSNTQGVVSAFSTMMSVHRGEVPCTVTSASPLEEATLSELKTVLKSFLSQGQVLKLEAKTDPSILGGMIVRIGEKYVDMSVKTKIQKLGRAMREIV
UniProt P52758: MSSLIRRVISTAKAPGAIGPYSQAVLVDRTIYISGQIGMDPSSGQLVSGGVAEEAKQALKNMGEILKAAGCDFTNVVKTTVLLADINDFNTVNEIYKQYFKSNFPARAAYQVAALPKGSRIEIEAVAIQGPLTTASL
UniProt P49770: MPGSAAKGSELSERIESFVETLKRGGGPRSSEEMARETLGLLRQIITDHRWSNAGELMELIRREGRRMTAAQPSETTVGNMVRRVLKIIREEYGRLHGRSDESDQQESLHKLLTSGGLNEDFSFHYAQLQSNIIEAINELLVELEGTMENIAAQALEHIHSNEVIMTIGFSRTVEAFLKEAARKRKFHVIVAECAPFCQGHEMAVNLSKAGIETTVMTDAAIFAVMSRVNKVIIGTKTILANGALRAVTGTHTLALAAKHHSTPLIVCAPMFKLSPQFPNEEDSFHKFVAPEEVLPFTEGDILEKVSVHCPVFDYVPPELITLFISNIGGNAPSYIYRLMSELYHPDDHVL
UniProt P51828: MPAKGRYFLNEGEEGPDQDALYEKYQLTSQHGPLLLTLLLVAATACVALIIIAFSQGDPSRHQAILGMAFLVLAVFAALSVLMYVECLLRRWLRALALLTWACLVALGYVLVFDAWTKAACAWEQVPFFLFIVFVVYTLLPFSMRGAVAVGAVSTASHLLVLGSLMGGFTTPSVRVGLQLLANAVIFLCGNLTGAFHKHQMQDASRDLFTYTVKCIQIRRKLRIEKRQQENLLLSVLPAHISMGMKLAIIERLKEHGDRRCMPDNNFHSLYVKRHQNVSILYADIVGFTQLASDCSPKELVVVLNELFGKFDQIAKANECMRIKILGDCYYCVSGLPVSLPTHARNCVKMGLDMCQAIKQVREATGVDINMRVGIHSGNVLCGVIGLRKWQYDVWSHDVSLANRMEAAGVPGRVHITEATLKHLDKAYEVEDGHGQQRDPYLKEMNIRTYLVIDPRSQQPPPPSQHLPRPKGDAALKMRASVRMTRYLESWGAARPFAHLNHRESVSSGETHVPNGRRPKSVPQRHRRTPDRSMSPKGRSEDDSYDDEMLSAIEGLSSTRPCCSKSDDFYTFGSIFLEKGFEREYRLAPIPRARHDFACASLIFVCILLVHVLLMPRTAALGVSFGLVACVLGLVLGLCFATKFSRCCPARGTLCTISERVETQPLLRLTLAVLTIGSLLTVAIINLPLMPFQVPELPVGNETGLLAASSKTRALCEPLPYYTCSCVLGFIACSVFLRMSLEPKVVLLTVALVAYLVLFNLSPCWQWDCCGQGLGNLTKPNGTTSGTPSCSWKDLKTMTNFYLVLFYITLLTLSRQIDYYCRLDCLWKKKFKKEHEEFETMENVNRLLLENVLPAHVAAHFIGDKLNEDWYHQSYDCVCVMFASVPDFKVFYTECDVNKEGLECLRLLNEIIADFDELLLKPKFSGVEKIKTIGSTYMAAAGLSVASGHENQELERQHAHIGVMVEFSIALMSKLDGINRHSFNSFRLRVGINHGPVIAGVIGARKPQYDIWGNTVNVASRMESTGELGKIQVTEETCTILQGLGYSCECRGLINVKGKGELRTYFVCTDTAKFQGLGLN
UniProt P48637: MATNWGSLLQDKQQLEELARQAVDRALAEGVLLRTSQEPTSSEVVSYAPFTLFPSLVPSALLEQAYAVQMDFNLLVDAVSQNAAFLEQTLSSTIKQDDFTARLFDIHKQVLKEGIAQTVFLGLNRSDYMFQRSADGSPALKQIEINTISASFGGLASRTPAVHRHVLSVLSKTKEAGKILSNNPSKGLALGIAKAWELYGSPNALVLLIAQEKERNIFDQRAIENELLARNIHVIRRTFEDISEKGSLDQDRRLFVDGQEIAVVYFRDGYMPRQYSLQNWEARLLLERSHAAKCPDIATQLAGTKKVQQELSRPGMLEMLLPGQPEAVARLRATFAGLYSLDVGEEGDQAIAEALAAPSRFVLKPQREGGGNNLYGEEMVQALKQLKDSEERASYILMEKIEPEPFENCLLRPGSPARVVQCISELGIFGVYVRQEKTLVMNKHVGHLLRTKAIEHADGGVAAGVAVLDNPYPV
UniProt P50336: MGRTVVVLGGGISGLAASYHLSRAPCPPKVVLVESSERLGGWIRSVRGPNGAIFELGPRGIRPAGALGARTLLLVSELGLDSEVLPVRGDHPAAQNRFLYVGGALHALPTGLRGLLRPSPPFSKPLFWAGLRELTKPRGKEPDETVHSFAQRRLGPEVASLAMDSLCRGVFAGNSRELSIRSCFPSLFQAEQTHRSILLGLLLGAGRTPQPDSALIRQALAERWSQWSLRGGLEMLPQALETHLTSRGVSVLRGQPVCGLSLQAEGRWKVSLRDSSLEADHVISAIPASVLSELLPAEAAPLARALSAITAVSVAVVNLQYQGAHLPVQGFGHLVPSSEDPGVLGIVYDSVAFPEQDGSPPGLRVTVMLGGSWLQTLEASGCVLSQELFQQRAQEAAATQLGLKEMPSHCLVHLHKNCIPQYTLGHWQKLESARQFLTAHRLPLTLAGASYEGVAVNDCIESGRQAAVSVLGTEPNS
UniProt P46060: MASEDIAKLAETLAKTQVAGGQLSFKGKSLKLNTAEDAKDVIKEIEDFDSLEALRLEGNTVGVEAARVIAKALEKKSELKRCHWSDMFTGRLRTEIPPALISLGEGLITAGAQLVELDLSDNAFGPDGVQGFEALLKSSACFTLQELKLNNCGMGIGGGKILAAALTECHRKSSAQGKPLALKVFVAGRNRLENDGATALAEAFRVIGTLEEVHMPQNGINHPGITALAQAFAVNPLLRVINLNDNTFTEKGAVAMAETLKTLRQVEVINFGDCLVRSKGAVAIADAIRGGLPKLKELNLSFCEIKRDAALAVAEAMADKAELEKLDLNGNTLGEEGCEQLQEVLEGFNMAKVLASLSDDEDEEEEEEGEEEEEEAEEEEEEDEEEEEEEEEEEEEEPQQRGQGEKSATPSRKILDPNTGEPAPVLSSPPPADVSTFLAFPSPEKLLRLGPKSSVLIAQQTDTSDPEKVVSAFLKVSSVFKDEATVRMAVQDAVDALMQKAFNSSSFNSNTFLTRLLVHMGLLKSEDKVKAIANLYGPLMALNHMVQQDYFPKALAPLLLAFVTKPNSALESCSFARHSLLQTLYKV
UniProt P51149, whole entry: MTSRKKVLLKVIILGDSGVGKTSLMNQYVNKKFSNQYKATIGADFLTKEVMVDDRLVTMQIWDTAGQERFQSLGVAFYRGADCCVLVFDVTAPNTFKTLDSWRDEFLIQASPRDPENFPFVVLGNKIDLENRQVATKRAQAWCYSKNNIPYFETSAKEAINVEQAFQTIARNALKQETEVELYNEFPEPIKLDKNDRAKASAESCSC

Compound in this test: Nc1ncnc2c1ncn2[C@@H]1O[C@H](COP(=O)(O)OP(=O)(O)NP(=O)(O)O)[C@@H](O)[C@H]1O [adenylyl imidodiphosphate]
Kind of test: NP40-soluble protein abundance relative to vehicle (solubility fold change) (ratio); higher = more soluble protein in presence of AMP-PNP. Summed up: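 Crude Jurkat lysate, prepared by Dounce homogenisation, was exposed to eight concentrations from 0.1 to 10 mM for 10 min at room temperature and then 3 min at 37 °C. Solubilisation used 0.8% NP40 with benzonase for 60 min at 4 °C, followed by ultracentrifugation and TMT labelling of the supernatant for LC-MS/MS. After vsn normalisation of intensities, each value is the fold change against the detergent-processed vehicle within each replicate, across three independent experiments.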

± gives the standard deviation of the averaged measurements. This is a selection; strong and weak results do not stand in their true shares. Small differences around the control level are noise.

UniProt P40337 and related entries: the NP40-soluble protein abundance is 0.99 ± 0.032 (concentration: 0.1mM) and 1 ± 0.044 (concentration: 0.5mM).

In the case of UniProt P50995 and related entries, the NP40-soluble protein abundance (concentration: 0.1mM) amounted to 1 ± 0.057 and the NP40-soluble protein abundance (concentration: 0.5mM) is 1.01 ± 0.047.

As for GCLM (UniProt P48507), the NP40-soluble protein abundance amounted to 1.01 ± 0.018 (concentration: 0.1mM) and 1.03 ± 0.017 (concentration: 0.5mM).

As for UniProt P52564, the NP40-soluble protein abundance (concentration: 0.1mM) was determined as 0.994 ± 0.029 and the NP40-soluble protein abundance (concentration: 0.5mM) stood at 0.981 ± 0.025.

As for UniProt P46934-4|H0Y9L1, the NP40-soluble protein abundance was 1.04 ± 0.017 (concentration: 0.1mM) and 0.968 ± 0.054 (concentration: 0.5mM).

PRIM2 (UniProt P49643): the NP40-soluble protein abundance (concentration: 0.1mM) was found to be 1.02 ± 0.018 and the NP40-soluble protein abundance (concentration: 0.5mM) worked out at 1.022 ± 0.0098.

In the case of UniProt P40855 and related entries, the NP40-soluble protein abundance by setting is: (concentration: 0.1mM) 1.02 ± 0.018; (concentration: 0.5mM) 1.08 ± 0.063.

Take UniProt P51809 and related entries: the NP40-soluble protein abundance (concentration: 0.1mM) stood at 1.03 ± 0.042 and the NP40-soluble protein abundance (concentration: 0.5mM) came out at 1.01 ± 0.017.

In the case of HSD17B4 (UniProt P51659), the NP40-soluble protein abundance (concentration: 0.1mM) was determined as 1.04 ± 0.022 and the NP40-soluble protein abundance (concentration: 0.5mM) was determined as 1.03 ± 0.028.

For HTT (UniProt P42858), the NP40-soluble protein abundance (concentration: 0.1mM) was found to be 1.03 ± 0.021 and the NP40-soluble protein abundance (concentration: 0.5mM) amounted to 0.979 ± 0.029.

Turning to UniProt P52824 and related entries, the NP40-soluble protein abundance is, setting by setting: (concentration: 0.1mM) 0.967 ± 0.018; (concentration: 0.5mM) 0.974 ± 0.012.

Regarding UniProt P49641 and related entries, the NP40-soluble protein abundance (concentration: 0.1mM) amounted to 1 ± 0.027 and the NP40-soluble protein abundance (concentration: 0.5mM) was determined as 0.978 ± 0.049.

For the target UniProt P48047, the NP40-soluble protein abundance was found to be 1.01 ± 0.032 (concentration: 0.1mM) and 1.03 ± 0.065 (concentration: 0.5mM).

Turning to UniProt P52758, the NP40-soluble protein abundance was determined as 0.988 ± 0.034 (concentration: 0.1mM) and 1.03 ± 0.059 (concentration: 0.5mM).

Take KIF11 (UniProt P52732): the NP40-soluble protein abundance is, setting by setting: (concentration: 0.1mM) 0.983 ± 0.013; (concentration: 0.5mM) 0.99 ± 0.028.

In the case of EIF2B2 (UniProt P49770), the NP40-soluble protein abundance runs as follows: (concentration: 0.1mM) 1.02 ± 0.055; (concentration: 0.5mM) 0.932 ± 0.058.

Turning to CCT4 (UniProt P50991), the NP40-soluble protein abundance is, setting by setting: (concentration: 0.1mM) 1.02 ± 0.032; (concentration: 0.5mM) 0.963 ± 0.096.

For ADCY7 (UniProt P51828), the NP40-soluble protein abundance (concentration: 0.1mM) was found to be 0.983 ± 0.024 and the NP40-soluble protein abundance (concentration: 0.5mM) worked out at 0.972 ± 0.015.

In the case of GSS (UniProt P48637), the NP40-soluble protein abundance stood at 1.02 ± 0.015 (concentration: 0.1mM) and 0.982 ± 0.028 (concentration: 0.5mM).

With PPOX (UniProt P50336), the NP40-soluble protein abundance was 1.02 ± 0.032 (concentration: 0.1mM) and 1.012 ± 0.0063 (concentration: 0.5mM).

As to RANGAP1 (UniProt P46060), the NP40-soluble protein abundance was determined as 0.9997 ± 0.0076 (concentration: 0.1mM) and 1.01 ± 0.017 (concentration: 0.5mM).

UniProt P51149: the NP40-soluble protein abundance stood at 0.988 ± 0.022 (concentration: 0.1mM) and 0.984 ± 0.065 (concentration: 0.5mM).

In the case of UniProt P46783 and related entries, the NP40-soluble protein abundance reads like this: (concentration: 0.1mM) 1.046 ± 0.0042; (concentration: 0.5mM) 1.028 ± 0.0058.
